Laboratory results from article PMC3954793, “SHP-2 Binds to Caveolin-1 and Regulates Src Activity via Competitive Inhibition of CSK in Response to H2O2 in Astrocytes” (PLoS ONE, 2014).
Results are given in words; binding and its absence hold for the method and conditions named. For part of these data: In cells and extracts the contact can be indirect. Some entries that bind do so weakly or less than the wild type.

What was measured:
[1] = molecular target: T1, wild-type (WT) caveolin-1 (human), Q03135; assay: co-IP; HEK 293T cells transfected with caveolin-1 WT or Y14A, 5 mM H2O2 for 10 min; 700 µg lysate in RIPA buffer; immunoprecipitation with anti-CSK, anti-SHP-2 or anti-caveolin-1, immunoblot; conditions: remark: other sources report otherwise
T1 chain: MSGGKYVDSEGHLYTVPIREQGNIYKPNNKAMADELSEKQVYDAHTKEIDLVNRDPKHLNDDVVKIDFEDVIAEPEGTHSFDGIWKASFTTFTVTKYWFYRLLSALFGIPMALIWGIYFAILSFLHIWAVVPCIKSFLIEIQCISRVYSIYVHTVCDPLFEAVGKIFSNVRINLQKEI

[2] = molecular target: T2, caveolin-1 (human (endogenous in CRT-MG)), Q03135; assay: co-IP; CRT-MG whole-cell lysates (700 µg, RIPA buffer), cells treated with or without H2O2 for 10 min, also after GFP, CSK or SHP-2 siRNA for 48 h; immunoprecipitation with anti-caveolin-1, immunoblot; conditions: remark: other sources report otherwise
T2 chain: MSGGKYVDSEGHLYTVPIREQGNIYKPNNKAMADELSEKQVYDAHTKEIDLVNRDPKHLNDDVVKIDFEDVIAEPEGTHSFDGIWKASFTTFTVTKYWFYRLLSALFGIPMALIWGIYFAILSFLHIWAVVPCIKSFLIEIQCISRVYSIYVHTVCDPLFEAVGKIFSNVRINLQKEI

[3] = molecular target: recombinant glutathione S-transferase (GST)-CSK (UniProt P41240); assay: SPR; SPRmicro system (K-MAC), rGST-SHP-2 or rGST-CSK immobilised on a G1 gold chip (NHS monolayer), Cav-1 pY 14 peptide injected at 10 to 1,000 µg/mL, 1×TBS, 20 µL/min; both purified

B1: c-Src tyrosine kinase (CSK), P41240 1-450 (enzyme)
chain: MSAIQAAWPSGTECIAKYNFHGTAEQDLPFCKGDVLTIVAVTKDPNWYKAKNKVGREGIIPANYVQKREGVKAGTKLSLMPWFHGKITREQAERLLYPPETGLFLVRESTNYPGDYTLCVSCDGKVEHYRIMYHASKLSIDEEVYFENLMQLVEHYTSDADGLCTRLIKPKVMEGTVAAQDEFYRSGWALNMKELKLLQTIGKGEFGDVMLGDYRGNKVAVKCIKNDATAQAFLAEASVMTQLRHSNLVQLLGVIVEEKGGLYIVTEYMAKGSLVDYLRSRGRSVLGGDCLLKFSLDVCEAMEYLEGNNFVHRDLAARNVLVSEDNVAKVSDFGLTKEASSTQDTGKLPVKWTAPEALREKKFSTKSDVWSFGILLWEIYSFGRVPYPRIPLKDVVPRVEKGYKMDAPDGCPPAVYEVMKNCWHLDAAMRPSFLQLREQLEHIKTHELHL
modifications: here or on the partner: phosphotyrosine at 14 after H2O2 treatment
With B1 the binding [1] was “binds” and the binding [2] was “binds”.

B2: caveolin-1 phosphopeptide Cav-1 pY 14 (peptide)
peptide: GHLYTVPIREQGN
modifications: phosphotyrosine at position 4 of the peptide (Tyr 14 of caveolin-1)
For B2, the binding [3] was “binds”.
